Test results: patent US12534439B2, “Xanthohumol derivatives and methods for making and using” (Oregon State University, priority 2021, dated 2026)

System: HFD-fed C57BL/6J mice
Assay: Untargeted cortex LC-MS metabolomics
Type: in vivo
Procedure: Plasma and Cortex LC-MS Metabolomics. The left and right sides of the cortex were pooled and ground using liquid nitrogen. Cortex samples (approximately 30 mg) were extracted as previously described with slight modifications. Tissues were homogenized with 600 μL of cold 80% acetonitrile with 0.1% formic acid containing 0.2 μg/mL of dopamine-d4 (Sigma-Aldrich, St Louis, MO, USA) and 0.2 μg/mL of chlorpropamide (Sigma-Aldrich, St Louis, MO, USA) using a counter-top bullet blender for 2 min and centrifuged at 20 000 rpm for 10 minutes. Supernatants were transferred to high performance liquid chromatography (HPLC) vials for analysis.
LC-high-resolution mass spectrometry/MS. Data dependent acquisition in both negative and positive ion mode was conducted using a Shimadzu Nexera UPLC system coupled to an AB SCIEX TripleTOF 5600 mass spectrometer (AB SCIEX, Toronto, Canada). Chromatographic separation was conducted using an Inertsil Phenyl-3 column (4.6×150 mm, 100 Å, 5 μm; GL Sciences, Tokyo, Japan). Spray voltage was −4200 V for negative ion mode and 4500 V for positive ion mode acquisition. The injection volume was 3 μL. Metabolite identifications were performed using Progenesis QI software (V2.4.6911) with METLIN plugin V1.0.6499 (NonLinear Dynamics, United Kingdom). Progenesis QI was used for peak picking, retention time correction, data normalization, peak alignment, and metabolite annotations. Metabolites were detected in both ion modes; the one with the lowest coefficient of variation of the QC was kept.

SMILES | Cortex metabolites significantly decreased by treatment | Increase in cortical IMP (versus control, p=0.006) [%]
COc1cc(O)c(CC=C(C)C)c(O)c1C(=O)/C=C/c1ccc(O)cc1 [XN, xanthohumol] | S-adenosylmethionine (SAM), creatine, 3-phosphoglycerate, reduced glutathione (GSH), and neurotransmitters such as aspartate; also recorded: N-acetyl-aspartate (NAA), choline, carnitine, and oxidized glutathione (GSSG) | –
COc1cc(O)c(CC=C(C)C)c(O)c1-c1cc(-c2ccc(O)cc2)n(C)n1 [XP, 4-(5-(4-hydroxyphenyl)-1-methyl-1H-pyrazol-3-yl)-5-methoxy-2-(3-methylbut-2-en-1-yl)benzene-1,3-diol] | S-adenosylmethionine (SAM), creatine, 3-phosphoglycerate, reduced glutathione (GSH), and neurotransmitters such as aspartate | 76

Entries after “also recorded” stand apart in the source; their conditions may differ.
